PubChem BioAssay AID1224826 | NIAID, 2016

Purpose: 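Genes that change LPS-induced Tnf promoter activity in mouse macrophages when knocked down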 (primary screen)
Cell system: RAW264.7 G9 macrophages from mouse bearing reporters for p65 (GFP) and the Tnf promoter (mCherry)
Reagents: siRNA pool against mouse genes, 100 nM
Duration: 16 h of LPS stimulation, after 2 days of siRNA transfection
Treatment: bacterial lipopolysaccharide (Salmonella minnesota R595), 10 ng/ml
Detection: 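Imaged Tnf reporter mCherry in nuclei, minus background, normalised per plate to the median and expressed as robust z-scores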
Direction: Tnf reporter robust z-score: higher = stronger Tnf promoter reporter signal after LPS
Call rule: 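Called active when robust z-score is at most -1.3, matching the median of the Tlr4 knock-down control, or over 3; control wells and wells with under 50 cells never active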
Calls: active = Tnf reporter clearly lowered or raised; inactive = no clear change in Tnf reporter
The deposit covers about 17,000 reagents; shown is an unselected part. About 1,110 of them (6.6%) count as active. 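Active means lowered or raised reporter signal; replicate intensities are raw and not normalised per plate.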 A number with no mark means an inactive call. Reagents against one gene are numbered here. Not all columns of the deposit are shown. No sequences are given here.

gene | pool no. | Tnf reporter robust z-score | fewer than 50 cells in well
Dnttip1 | 1 | -0.19 | enough cells in well
Fgf14 | 1 | 0.55 | enough cells in well
Pitpnm3 | 1 | -0.69 | enough cells in well
Rpl36a | 1 | -0.42 | enough cells in well
Or10ak16 | 1 | 0.42 | enough cells in well
Clpx | 1 | -0.75 | enough cells in well
Ffar2 | 1 | -0.26 | enough cells in well
Pofut2 | 1 | 0.84 | enough cells in well
Kmt2a | 1 | -1.63 (active) | enough cells in well
Arf2 | 1 | -1.08 | enough cells in well
Hid1 | 1 | -1.09 | enough cells in well
Tmtc2 | 1 | -1.36 (active) | enough cells in well
Tmtc2 | 2 | – | fewer than 50 cells per well; well left out of calls
Dennd1b | 1 | -1.16 | enough cells in well
Arhgef3 | 1 | 0 | enough cells in well
Shox2 | 1 | -0.36 | enough cells in well
Rgs3 | 1 | -1.02 | enough cells in well
Tmem216 | 1 | -0.35 | enough cells in well
Bnc2 | 1 | -0.6 | enough cells in well
Cd70 | 1 | -0.58 | enough cells in well
Pkmyt1 | 1 | -0.47 | enough cells in well
Calm2 | 1 | – | fewer than 50 cells per well; well left out of calls
Col14a1 | 1 | 0.71 | enough cells in well
Or8b12c | 1 | – | fewer than 50 cells per well; well left out of calls
Fgfr4 | 1 | -0.99 | enough cells in well
Mzt2 | 1 | 0.39 | enough cells in well
Cmah | 1 | 0.07 | enough cells in well
Uimc1 | 1 | -0.71 | enough cells in well
Jph2 | 1 | 1.77 | enough cells in well
Dnaja1 | 1 | 0.22 | enough cells in well
Defb15 | 1 | -0.83 | enough cells in well
Vasn | 1 | – | fewer than 50 cells per well; well left out of calls
Itgb1bp1 | 1 | 0.72 | enough cells in well
A530053G22Rik | 1 | 1.5 | enough cells in well
Psenen | 1 | 1.17 | enough cells in well
Exoc3l4 | 1 | 0.17 | enough cells in well
Tmed10 | 1 | 0.51 | enough cells in well
4933436E20Rik (retired record) | 1 | -0.69 | enough cells in well
Gstt2 | 1 | 0.68 | enough cells in well
Mia | 1 | 0.02 | enough cells in well
Slc45a1 | 1 | -0.82 | enough cells in well
Fam114a2 | 1 | – | fewer than 50 cells per well; well left out of calls
Pabpc4 | 1 | – | fewer than 50 cells per well; well left out of calls
Msh2 | 1 | 0.95 | enough cells in well
Nanos3 | 1 | -1.71 (active) | enough cells in well
Klhdc3 | 1 | -1.46 (active) | enough cells in well
Tnf | 1 | -1.49 (active) | enough cells in well
Krt7 | 1 | -0.87 | enough cells in well
Faxc | 1 | 0.95 | enough cells in well
Slfn8 | 1 | – | fewer than 50 cells per well; well left out of calls
Cyp4f16 | 1 | -0.75 | enough cells in well
Ca12 | 1 | 0.78 | enough cells in well
Or52x1 | 1 | 0.36 | enough cells in well
Smo | 1 | 0.26 | enough cells in well
Nscme3l | 1 | 0.92 | enough cells in well
Lrrc23 | 1 | -0.66 | enough cells in well
Txnrd1 | 1 | 0.16 | enough cells in well
H2bc27 | 1 | -1.64 (active) | enough cells in well
Fgfrl1 | 1 | -0.19 | enough cells in well
Tmem220 | 1 | -0.57 | enough cells in well
Uhmk1 | 1 | -0.77 | enough cells in well
Aebp1 | 1 | -0.32 | enough cells in well
Rnf26 | 1 | – | fewer than 50 cells per well; well left out of calls
Bcor | 1 | 1.56 | enough cells in well
Tmed3 | 1 | – | fewer than 50 cells per well; well left out of calls
Pcdhgb1 | 1 | -1.07 | enough cells in well
Stard3nl | 1 | 2.07 | enough cells in well
Cebpg | 1 | 0.51 | enough cells in well
Pex3 | 1 | 0.05 | enough cells in well
Ccny | 1 | – | fewer than 50 cells per well; well left out of calls
Rhbg | 1 | – | fewer than 50 cells per well; well left out of calls
Fem1a | 1 | 1.6 | enough cells in well
Psma7 | 1 | – | fewer than 50 cells per well; well left out of calls
Gm4861 | 1 | 0 | enough cells in well
Gsta4 | 1 | -2.02 (active) | enough cells in well

Active calls, of those listed so far:
gene | pool no. | Tnf reporter robust z-score | fewer than 50 cells in well
Kmt2a | 1 | -1.63 (active) | enough cells in well
Tmtc2 | 1 | -1.36 (active) | enough cells in well
Nanos3 | 1 | -1.71 (active) | enough cells in well
Klhdc3 | 1 | -1.46 (active) | enough cells in well
Tnf | 1 | -1.49 (active) | enough cells in well
H2bc27 | 1 | -1.64 (active) | enough cells in well
Gsta4 | 1 | -2.02 (active) | enough cells in well
